Data published in paper PMC6650555.
No constants are given. Whether binding was seen depends on the method and setting. Binding seen in cells or lysates may run through a third protein. These calls come from enrichment with a bait or labelling near it, and not all partners need be listed.

The chains behind the UniProt entries cited, without tags or fusion partners. Where a name states a change or a piece, a line headed by the entry shows the natural chain unless it says otherwise.
UniProt Q16666: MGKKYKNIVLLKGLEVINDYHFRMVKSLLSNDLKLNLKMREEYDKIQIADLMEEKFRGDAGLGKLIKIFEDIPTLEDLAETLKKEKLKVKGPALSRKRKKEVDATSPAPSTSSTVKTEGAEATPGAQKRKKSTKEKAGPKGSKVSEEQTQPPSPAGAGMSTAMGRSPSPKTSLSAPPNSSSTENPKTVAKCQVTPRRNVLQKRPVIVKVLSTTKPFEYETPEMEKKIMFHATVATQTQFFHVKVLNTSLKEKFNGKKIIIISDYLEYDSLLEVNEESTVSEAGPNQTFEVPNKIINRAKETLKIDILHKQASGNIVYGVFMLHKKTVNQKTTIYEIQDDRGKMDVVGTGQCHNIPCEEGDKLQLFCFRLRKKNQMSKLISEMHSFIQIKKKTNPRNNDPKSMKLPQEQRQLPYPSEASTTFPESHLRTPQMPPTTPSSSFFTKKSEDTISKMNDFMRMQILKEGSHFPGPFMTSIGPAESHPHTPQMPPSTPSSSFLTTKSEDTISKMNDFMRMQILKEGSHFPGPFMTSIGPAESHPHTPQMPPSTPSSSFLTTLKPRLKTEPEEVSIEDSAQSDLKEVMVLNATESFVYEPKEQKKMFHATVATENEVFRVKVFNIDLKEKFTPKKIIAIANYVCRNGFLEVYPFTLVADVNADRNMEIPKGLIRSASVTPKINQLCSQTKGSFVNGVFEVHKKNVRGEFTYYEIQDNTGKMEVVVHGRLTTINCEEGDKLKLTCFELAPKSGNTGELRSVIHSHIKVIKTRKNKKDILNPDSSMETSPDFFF
UniProt Q9UER7: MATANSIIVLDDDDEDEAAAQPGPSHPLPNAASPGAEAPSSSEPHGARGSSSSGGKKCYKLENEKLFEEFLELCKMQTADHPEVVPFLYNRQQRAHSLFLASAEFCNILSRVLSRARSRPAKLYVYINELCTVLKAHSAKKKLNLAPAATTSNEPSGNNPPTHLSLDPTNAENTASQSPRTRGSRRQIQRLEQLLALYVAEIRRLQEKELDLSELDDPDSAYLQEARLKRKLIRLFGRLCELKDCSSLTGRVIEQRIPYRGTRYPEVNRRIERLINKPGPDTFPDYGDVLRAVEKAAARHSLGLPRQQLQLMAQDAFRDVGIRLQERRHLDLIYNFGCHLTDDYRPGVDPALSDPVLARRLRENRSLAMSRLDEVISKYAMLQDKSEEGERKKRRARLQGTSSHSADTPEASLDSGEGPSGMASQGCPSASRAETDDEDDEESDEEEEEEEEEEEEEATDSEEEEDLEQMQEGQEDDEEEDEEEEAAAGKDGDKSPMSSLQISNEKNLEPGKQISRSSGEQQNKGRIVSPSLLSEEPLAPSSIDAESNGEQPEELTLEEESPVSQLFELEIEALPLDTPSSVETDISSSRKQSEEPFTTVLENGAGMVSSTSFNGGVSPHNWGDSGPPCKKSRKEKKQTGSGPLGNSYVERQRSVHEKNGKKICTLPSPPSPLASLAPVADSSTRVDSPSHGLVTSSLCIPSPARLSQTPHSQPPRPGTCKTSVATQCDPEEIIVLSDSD
UniProt P29590: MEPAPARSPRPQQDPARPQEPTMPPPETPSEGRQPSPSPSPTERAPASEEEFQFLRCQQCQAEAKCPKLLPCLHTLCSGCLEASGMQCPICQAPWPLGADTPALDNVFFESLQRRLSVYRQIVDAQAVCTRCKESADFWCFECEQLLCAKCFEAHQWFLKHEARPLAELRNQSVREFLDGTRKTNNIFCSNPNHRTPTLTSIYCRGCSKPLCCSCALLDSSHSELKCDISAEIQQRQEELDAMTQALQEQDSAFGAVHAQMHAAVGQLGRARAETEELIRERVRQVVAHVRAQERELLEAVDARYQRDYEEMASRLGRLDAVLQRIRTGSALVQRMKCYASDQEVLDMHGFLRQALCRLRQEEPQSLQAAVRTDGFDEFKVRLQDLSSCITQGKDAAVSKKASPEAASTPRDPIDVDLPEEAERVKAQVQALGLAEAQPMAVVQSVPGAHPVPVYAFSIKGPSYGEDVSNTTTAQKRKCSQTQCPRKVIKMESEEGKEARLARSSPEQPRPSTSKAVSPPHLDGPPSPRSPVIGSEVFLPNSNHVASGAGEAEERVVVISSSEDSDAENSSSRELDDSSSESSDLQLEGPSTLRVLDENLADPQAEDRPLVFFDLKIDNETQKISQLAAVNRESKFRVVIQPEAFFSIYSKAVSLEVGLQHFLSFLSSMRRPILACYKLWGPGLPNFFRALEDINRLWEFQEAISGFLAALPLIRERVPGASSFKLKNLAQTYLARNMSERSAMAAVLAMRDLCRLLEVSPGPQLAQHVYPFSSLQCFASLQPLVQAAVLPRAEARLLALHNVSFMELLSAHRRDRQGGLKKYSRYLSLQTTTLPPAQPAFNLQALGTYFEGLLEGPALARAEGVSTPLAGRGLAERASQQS

Biological target: CRISPR-resistant full-length IFI16-GFP R23K (UniProt Q16666)
Assay: affinity purification with mass spectrometry; HFFs lacking endogenous IFI16 and stably expressing CRISPR-resistant IFI16-GFP constructs, infected with ICP0-RF HSV-1 (6 hpi, MOI of 10); GFP IP; targeted MS/MS (PRM) of proteotypic peptides, relative to the WT IFI16 IP and normalized by IFI16 …

Row | Substance | binding
1 | DAXX (from UniProt Q9UER7 1-740) | binds
2 | PML (from UniProt P29590 1-882) | binds
